Results deposited as PubChem BioAssay AID743121 (NCATS, 2013)
Here is a random part of about 26,000 reagents tested. 167 of them (0.63%) were called active. 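Calls are per gene from RSA p-values that are not deposited; an individual active-marked siRNA can sensitise only weakly.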 The numbers tell different reagents against one gene apart. No sequences are given here.

- Assay: 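Partners whose loss is lethal together with topoisomerase I blockade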 (primary screen)
- System: MDA-MB-231 cells, a human breast cancer line
- Reagents: single siRNA against human genes, 20 nM siRNA (0.8 pmol per well)
- Timing: 120 h (drug added 48 h after transfection, read 72 h later)
- Conditions: camptothecin 20 nM (about EC30) for 72 h; vehicle 0.1% DMSO in parallel plates
- Measurement: 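CellTiter-Glo ATP signal, scaled to control siRNA as percent viability; sensitisation given as log2 of untreated divided by camptothecin-treated viability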
- Reading the numbers: log2 vehicle/camptothecin viability: higher = stronger sensitisation to camptothecin; viability with camptothecin and viability without drug: higher = more viable cells
- Active means: 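Active genes have an RSA gene-level p-value below 0.001, computed from the ratios of their separate siRNAs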

The first 7 records, to show the layout:
gene	reagent	log2 vehicle/camptothecin viability	viability with camptothecin (% of control)	viability without drug (% of control)	Call
BSPRY	1	-0.0594	94	90.2	inactive
BSPRY	2	0.0618	36.7	38.3	inactive
BSPRY	3	-0.0814	101	95.9	inactive
BSPRY	4	-0.0736	52.6	50	inactive
IL1RAPL1	1	-0.312	61.5	49.6	inactive
IL1RAPL1	2	0.0748	105	111	inactive
IL1RAPL1	3	-0.0078	55.4	55.1	inactive

Main list, repeating the preview:
gene	reagent	log2 vehicle/camptothecin viability	viability with camptothecin (% of control)	viability without drug (% of control)	Call
BSPRY	1	-0.0594	94	90.2	inactive
BSPRY	2	0.0618	36.7	38.3	inactive
BSPRY	3	-0.0814	101	95.9	inactive
BSPRY	4	-0.0736	52.6	50	inactive
IL1RAPL1	1	-0.312	61.5	49.6	inactive
IL1RAPL1	2	0.0748	105	111	inactive
IL1RAPL1	3	-0.0078	55.4	55.1	inactive
IL1RAPL1	4	-0.0616	70.5	67.5	inactive
TRIM7	1	0.0184	104	105	inactive
TRIM7	2	-0.426	23.4	17.4	inactive
TRIM7	3	0.276	60.2	72.9	inactive
TRIM7	4	-0.233	85.2	72.5	inactive
TRIM7	5	-0.0329	102	100	inactive
TRIM7	6	-0.341	97.4	76.9	inactive
TRIM7	7	-0.143	95.4	86.4	inactive
TRIM7	8	-0.369	94.2	73	inactive
CD300LF	1	-0.112	68.3	63.2	inactive
CD300LF	2	-0.199	80.4	70	inactive
CD300LF	3	-0.316	52.7	42.3	inactive
CD300LF	4	0.265	31.2	37.5	inactive
RNF167	1	-0.111	51.2	47.4	inactive
RNF167	2	-0.301	67.1	54.5	inactive
RNF167	3	-0.326	104	83	inactive
RNF167	4	-0.264	92.4	77	inactive
OR2C3	1	-0.376	110	85	inactive
OR2C3	2	-0.551	122	83.1	inactive
OR2C3	3	-0.205	89	77.2	inactive
OR2C3	4	-0.0328	97.9	95.7	inactive
PTTG1	1	0.965	7.67	15	inactive
PTTG1	2	-0.456	144	105	inactive
PTTG1	3	0.289	68.4	83.6	inactive
PTTG1	4	-0.174	91	80.7	inactive
KCNT1	1	0.0689	91.6	96.1	inactive
KCNT1	2	-0.415	85.7	64.3	inactive
KCNT1	3	0.216	51	59.3	inactive
PRB1	1	-0.0426	81.9	79.5	inactive
PRB1	2	0.864	38.6	70.2	inactive
PRB1	3	-0.0278	51.2	50.3	inactive
PRB1	4	-0.1	98.6	92	inactive
PPP1R3A	1	-0.305	82	66.4	inactive
PPP1R3A	2	0.515	26.7	38.1	inactive
PPP1R3A	3	0.782	14.1	24.3	inactive
PPP1R3A	4	-0.479	74.4	53.4	inactive
FASTK	1	-0.834	61.6	34.5	inactive
FASTK	2	-0.403	90.3	68.3	inactive
FASTK	3	-0.365	73.7	57.2	inactive
FASTK	4	-0.221	116	99.4	inactive
PYGO1	1	-0.107	88.8	82.5	inactive
PYGO1	2	0.637	52.5	81.6	inactive
PYGO1	3	0.2	102	118	inactive
PYGO1	4	-0.241	114	96.8	inactive
CLIC5	1	-0.25	65.9	55.4	inactive
CLIC5	2	0.174	49.4	55.7	inactive
CLIC5	3	0.0319	89.7	91.7	inactive
HMSD	1	-0.245	60	50.7	inactive
HMSD	2	-0.128	103	94.1	inactive
HMSD	3	-0.18	98	86.5	inactive
CYP1A1	1	-0.51	54.5	38.2	inactive
CYP1A1	2	-0.216	67.4	58.1	inactive
CYP1A1	3	0.353	26	33.1	inactive
CYP1A1	4	-0.221	23.6	20.3	inactive
REEP2	1	0.55	23.2	34	inactive
REEP2	2	-0.173	102	90.1	inactive
REEP2	3	-0.31	84.6	68.2	inactive
REEP2	4	0.41	57.3	76.2	inactive
RNF213	1	-0.388	102	78.1	inactive
RNF213	2	-0.383	102	78.3	inactive
RNF213	3	-0.289	65.7	53.8	inactive
EML4	1	0.324	78.1	97.8	inactive
EML4	2	0.0309	92.6	94.6	inactive
EML4	3	1.01	51.7	104	inactive
EML4	4	0.474	55.4	76.9	inactive
CA5B	1	-0.394	88.1	67	inactive
CA5B	2	-0.272	109	90.4	inactive
CA5B	3	-0.278	45.1	37.2	inactive
CA5B	4	-0.178	90.5	80	inactive
LATS2	1	-0.394	80	60.8	inactive
LATS2	2	0.204	62.8	72.4	inactive
LATS2	3	-0.192	77.2	67.6	inactive
LATS2	4	-0.214	106	91.2	inactive
HNRNPUL1	1	-0.291	23.7	19.4	inactive
HNRNPUL1	2	-0.607	94.7	62.2	inactive
HNRNPUL1	3	-0.464	92.9	67.4	inactive
HNRNPUL1	4	-0.339	36.2	28.7	inactive
GNA12	1	-0.0771	54.9	52	inactive
GNA12	2	0.96	3.16	6.14	inactive
GNA12	3	-0.386	58.9	45.1	inactive
GNA12	4	-0.143	110	99.3	inactive
